# Source: the supplement of paper PMC12067093, “Discovery and optimisation of a covalent ligand for TRIM25 and its application to targeted protein ubiquitination” (Chemical Science, 2025)
# Protein sequences, listed by entry. Tags and fused reporters are not part of them. Lines headed by an entry give the natural chain unless they say otherwise; changes in a name come on top.
# UniProt Q14643, whole entry, looked up: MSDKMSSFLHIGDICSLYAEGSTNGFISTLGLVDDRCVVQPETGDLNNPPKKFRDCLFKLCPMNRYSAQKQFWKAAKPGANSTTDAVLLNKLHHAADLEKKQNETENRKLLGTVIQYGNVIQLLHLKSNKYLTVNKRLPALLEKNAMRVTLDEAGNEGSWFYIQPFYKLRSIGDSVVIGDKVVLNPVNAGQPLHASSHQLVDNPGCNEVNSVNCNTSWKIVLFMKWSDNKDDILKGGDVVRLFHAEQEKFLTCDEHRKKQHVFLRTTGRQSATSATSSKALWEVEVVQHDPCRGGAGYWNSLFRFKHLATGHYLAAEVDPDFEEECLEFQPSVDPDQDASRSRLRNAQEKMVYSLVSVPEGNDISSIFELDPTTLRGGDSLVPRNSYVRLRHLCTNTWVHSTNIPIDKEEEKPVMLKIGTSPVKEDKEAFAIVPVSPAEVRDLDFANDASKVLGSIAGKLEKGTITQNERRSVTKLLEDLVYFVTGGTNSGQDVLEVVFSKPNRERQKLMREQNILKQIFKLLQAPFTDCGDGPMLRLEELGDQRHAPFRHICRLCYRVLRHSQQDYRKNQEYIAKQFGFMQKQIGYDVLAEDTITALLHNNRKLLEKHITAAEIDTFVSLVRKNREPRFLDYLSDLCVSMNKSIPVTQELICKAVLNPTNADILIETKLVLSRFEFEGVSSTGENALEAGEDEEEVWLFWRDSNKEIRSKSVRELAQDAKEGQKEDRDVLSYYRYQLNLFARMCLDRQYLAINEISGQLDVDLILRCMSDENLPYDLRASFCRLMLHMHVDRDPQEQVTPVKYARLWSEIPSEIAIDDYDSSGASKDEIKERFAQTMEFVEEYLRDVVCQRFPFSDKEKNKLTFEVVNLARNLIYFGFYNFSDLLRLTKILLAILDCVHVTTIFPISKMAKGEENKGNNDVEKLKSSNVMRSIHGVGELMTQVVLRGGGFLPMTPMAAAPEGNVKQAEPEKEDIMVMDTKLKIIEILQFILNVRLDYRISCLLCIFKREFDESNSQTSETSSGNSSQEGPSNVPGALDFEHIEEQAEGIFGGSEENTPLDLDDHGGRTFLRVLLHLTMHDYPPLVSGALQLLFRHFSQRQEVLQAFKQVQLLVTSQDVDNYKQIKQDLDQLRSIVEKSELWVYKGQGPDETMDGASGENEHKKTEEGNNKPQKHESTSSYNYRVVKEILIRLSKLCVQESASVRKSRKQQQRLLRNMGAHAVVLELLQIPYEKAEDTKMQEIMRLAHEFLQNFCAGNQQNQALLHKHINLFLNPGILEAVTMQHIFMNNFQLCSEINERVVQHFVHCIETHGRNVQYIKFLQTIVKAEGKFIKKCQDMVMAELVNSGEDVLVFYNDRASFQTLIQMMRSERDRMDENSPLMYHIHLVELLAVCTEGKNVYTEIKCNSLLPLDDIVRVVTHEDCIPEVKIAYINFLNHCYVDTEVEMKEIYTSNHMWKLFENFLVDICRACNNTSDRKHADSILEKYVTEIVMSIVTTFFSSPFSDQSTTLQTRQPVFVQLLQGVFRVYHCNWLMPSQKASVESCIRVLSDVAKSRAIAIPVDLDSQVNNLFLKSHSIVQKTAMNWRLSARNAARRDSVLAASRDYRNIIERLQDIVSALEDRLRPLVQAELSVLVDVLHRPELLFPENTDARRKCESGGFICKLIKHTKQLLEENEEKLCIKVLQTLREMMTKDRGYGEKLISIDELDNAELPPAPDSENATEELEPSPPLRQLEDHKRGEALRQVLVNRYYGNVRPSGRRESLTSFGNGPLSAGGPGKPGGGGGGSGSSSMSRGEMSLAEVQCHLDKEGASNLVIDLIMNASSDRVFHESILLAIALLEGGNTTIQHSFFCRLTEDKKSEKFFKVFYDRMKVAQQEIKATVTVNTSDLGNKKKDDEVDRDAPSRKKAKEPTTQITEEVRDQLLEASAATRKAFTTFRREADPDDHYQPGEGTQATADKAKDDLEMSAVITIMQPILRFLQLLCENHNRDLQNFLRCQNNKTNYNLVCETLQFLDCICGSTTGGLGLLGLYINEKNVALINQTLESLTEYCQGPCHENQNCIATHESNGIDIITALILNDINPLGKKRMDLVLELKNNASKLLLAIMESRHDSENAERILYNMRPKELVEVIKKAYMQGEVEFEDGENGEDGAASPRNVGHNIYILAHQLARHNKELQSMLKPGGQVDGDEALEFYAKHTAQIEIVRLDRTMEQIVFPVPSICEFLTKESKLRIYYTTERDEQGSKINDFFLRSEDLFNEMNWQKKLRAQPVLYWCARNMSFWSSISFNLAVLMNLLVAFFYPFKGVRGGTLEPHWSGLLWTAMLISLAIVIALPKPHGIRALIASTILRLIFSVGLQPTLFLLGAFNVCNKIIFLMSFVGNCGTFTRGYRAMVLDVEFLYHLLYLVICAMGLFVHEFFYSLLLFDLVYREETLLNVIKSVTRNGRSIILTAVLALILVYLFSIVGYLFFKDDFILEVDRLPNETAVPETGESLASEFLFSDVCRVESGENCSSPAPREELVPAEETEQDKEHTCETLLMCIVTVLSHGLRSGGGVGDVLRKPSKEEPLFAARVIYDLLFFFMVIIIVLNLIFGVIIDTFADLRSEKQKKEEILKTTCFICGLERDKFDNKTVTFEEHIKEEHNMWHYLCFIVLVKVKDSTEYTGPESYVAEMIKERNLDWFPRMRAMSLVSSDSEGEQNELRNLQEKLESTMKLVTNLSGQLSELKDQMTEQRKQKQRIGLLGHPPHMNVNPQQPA
# UniProt Q15046, whole entry, looked up: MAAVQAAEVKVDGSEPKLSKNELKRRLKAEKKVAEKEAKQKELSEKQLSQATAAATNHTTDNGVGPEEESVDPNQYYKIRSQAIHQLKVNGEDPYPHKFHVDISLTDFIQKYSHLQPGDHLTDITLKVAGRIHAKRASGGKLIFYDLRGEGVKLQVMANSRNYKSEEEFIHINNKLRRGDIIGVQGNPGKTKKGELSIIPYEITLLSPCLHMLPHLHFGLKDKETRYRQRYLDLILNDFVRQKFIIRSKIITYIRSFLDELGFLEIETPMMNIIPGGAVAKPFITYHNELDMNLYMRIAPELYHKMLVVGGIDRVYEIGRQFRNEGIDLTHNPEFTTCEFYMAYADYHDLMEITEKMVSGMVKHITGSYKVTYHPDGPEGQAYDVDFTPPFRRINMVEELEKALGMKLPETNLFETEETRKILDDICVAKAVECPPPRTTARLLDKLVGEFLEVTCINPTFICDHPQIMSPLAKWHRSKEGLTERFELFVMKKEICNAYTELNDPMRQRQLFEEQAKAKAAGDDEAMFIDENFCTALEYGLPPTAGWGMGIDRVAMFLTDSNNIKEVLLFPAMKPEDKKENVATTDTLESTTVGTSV
# UniProt O94819: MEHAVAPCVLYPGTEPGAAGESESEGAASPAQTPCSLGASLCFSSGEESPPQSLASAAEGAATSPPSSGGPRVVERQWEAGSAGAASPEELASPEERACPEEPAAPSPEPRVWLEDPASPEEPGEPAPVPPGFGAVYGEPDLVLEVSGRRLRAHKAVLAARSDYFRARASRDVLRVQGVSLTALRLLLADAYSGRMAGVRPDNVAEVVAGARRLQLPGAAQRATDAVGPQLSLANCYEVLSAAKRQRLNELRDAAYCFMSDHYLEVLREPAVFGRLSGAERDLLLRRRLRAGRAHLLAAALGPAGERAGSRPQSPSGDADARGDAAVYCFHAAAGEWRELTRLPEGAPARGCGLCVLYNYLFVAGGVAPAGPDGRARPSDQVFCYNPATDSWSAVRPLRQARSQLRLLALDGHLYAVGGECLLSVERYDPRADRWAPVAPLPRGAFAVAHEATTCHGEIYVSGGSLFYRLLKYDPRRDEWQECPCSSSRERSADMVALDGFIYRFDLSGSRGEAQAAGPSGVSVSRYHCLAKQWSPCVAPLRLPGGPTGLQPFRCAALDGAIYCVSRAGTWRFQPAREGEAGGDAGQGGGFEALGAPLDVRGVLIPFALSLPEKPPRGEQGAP
# UniProt Q9H7Z6: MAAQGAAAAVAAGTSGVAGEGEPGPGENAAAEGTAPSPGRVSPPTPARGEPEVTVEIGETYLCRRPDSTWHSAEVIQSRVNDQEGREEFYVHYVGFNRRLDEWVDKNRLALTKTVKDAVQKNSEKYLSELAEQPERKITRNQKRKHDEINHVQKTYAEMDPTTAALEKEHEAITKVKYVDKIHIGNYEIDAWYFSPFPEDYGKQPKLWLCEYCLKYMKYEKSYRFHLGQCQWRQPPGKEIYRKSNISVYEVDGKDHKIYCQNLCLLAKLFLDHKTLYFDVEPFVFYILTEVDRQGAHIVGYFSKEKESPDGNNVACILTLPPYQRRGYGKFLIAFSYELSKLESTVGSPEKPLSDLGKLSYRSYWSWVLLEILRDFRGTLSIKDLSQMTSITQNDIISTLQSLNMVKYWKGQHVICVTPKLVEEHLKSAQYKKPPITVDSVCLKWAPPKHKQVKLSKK
# UniProt Q7LBC6: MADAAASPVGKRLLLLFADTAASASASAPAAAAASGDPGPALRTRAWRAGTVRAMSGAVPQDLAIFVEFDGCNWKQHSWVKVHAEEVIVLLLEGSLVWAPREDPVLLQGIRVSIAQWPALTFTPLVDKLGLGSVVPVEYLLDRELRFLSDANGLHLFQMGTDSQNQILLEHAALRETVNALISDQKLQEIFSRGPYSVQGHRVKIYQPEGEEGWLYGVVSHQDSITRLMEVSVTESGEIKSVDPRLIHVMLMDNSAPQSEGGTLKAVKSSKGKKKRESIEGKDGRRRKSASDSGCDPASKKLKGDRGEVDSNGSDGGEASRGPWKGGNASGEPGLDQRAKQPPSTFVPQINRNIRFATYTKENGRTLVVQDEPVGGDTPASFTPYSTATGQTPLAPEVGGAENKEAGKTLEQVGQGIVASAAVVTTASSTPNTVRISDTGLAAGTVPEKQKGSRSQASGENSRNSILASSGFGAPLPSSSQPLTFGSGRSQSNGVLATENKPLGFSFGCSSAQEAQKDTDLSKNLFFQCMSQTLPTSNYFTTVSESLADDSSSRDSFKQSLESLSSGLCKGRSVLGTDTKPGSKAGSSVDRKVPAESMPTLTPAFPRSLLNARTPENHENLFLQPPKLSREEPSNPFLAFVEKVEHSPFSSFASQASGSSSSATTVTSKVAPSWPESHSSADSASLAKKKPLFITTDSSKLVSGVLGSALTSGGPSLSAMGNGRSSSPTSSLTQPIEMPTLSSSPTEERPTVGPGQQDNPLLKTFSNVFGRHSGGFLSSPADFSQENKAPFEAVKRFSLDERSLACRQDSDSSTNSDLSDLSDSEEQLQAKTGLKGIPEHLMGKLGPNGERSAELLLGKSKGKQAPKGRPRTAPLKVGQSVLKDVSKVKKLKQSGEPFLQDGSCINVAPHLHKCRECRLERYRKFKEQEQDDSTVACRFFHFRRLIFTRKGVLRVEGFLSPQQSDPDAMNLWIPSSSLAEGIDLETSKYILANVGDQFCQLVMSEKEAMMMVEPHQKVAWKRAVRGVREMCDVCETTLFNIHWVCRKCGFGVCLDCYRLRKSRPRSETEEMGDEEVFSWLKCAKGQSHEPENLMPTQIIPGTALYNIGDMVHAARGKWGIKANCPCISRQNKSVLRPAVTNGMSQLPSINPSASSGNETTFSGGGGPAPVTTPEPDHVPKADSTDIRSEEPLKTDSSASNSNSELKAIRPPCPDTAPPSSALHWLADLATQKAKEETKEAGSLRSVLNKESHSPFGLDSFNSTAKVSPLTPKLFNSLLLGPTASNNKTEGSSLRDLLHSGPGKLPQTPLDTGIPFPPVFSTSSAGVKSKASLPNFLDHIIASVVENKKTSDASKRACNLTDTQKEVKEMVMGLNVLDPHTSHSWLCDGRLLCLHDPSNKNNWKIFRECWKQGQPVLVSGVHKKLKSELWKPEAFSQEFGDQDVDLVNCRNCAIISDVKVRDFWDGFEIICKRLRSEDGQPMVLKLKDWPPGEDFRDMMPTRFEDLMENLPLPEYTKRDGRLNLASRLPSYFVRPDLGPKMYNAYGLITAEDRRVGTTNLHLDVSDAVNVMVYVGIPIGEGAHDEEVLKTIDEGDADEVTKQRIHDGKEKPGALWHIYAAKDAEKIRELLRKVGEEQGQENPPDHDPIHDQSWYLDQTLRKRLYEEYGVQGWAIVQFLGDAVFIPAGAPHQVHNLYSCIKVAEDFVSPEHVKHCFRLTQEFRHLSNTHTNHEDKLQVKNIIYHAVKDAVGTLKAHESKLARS
# UniProt Q9H079: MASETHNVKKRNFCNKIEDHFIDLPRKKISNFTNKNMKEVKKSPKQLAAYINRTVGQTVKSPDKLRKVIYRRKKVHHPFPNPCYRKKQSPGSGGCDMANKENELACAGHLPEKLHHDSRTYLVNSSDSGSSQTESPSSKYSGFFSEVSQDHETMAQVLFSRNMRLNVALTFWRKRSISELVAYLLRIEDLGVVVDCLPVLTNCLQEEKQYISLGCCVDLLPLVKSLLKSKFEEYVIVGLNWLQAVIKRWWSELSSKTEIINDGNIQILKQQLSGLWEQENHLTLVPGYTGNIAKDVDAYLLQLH
# The list shows a part of the results.
# Compound: CC1Cc2ccccc2N1C(=O)C1CCCN(C1)C(=O)CCl (mixture of isomers) [TRIM25 ligand 11 (diastereomer mixture)]
# Assay: probe-labelled cysteine peptide fold change vs DMSO (competition) (log2 fold change); higher = less target engagement (more negative = stronger competition)
# Details: THP-1, incubation time: 4 h
# 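Also: competitive chemoproteomic profiling in live THP-1 cells with an iodoacetamide desthiobiotin (IA-DTB) probe, comparing probe-labelled peptide intensities in compound-treated cells against DMSO-treated controls.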
Target,probe-labelled cysteine peptide fold change (10 µM),probe-labelled cysteine peptide fold change (50 µM)
KDM2A_Q9Y2K7_463_CLVDKLESLPLHKK (UniProt Q9Y2K7),-0.336,-0.186
KDSR_Q06136_121_LGPVDMLVNCAGMAVSGK (UniProt Q06136),-0.072,-0.0848
KDM5C_P41229_707_GITEAEREAFELLPDDERQCIK (UniProt P41229),0.00664,0.123
ITPR2_Q14571_2087_NAYNQGLECDHGDDEGGDDGVSPK (UniProt Q14571),-0.0694,-0.0836
ITPR1_Q14643_292_ALWEVEVVQHDPCR (UniProt Q14643),0.0538,-0.00117
KARS_Q15046_456+463_LVGEFLEVTCINPTFICDHPQIMSPLAK (UniProt Q15046),-0.0508,-0.0667
KDM2A_Q9Y2K7_1104_YSLTELNMAGCNK (UniProt Q9Y2K7),0.0922,0.239
KBTBD11_O94819_455_GAFAVAHEATTCHGEIYVSGGSLFYR (UniProt O94819),-0.034,0.0762
KBTBD11_O94819_329_GDAAVYCFHAAAGEWR (UniProt O94819),0.247,0.242
KDM5C_P41229_376_CVMAECK (UniProt P41229),-0.0487,0.00524
KDM2A_Q9Y2K7_582_ACVQGECGVCHYCR (UniProt Q9Y2K7),0.145,0.0604
ITPA_Q9BY32_33_FPCTLVAQK (UniProt Q9BY32),0.156,0.306
ITSN2_Q9NZM3_907_AQALCSWTAK (UniProt Q9NZM3),-0.0461,-0.0782
KAT8_Q9H7Z6_230_FHLGQCQWR (UniProt Q9H7Z6),-0.0637,-0.137
KDM1A_O60341_573_NGYSCVPVALAEGLDIK (UniProt O60341),0.00798,-0.00582
KDM3B_Q7LBC6_1034_EMCDVCETTLFNIHWVCR (UniProt Q7LBC6),0.102,0.168
KDM4C_Q9H3R0_14_MEVAEVESPLNPSCK (UniProt Q9H3R0),0.302,0.223
KDM3B_Q7LBC6_937_FKEQEQDDSTVACR (UniProt Q7LBC6),0.0203,0.00347

Target,probe-labelled cysteine peptide fold change (10 µM),probe-labelled cysteine peptide fold change (50 µM)
ITPR1_Q14643_2277_AQPVLYWCAR (UniProt Q14643),-0.022,0.0127
KHDC4_Q7Z7F0_116_SKDDLVVAEVEINDVPLTCR (UniProt Q7Z7F0),-0.0549,-0.242
ITPR1_Q14643_1531_VYHCNWLMPSQK (UniProt Q14643),0.0297,0.213
KDM2A_Q9Y2K7_913_ELCECMR (UniProt Q9Y2K7),0.136,0.318
KIF14_Q15058_1418_AASVQEEFMDAVCDGVGLGMK (UniProt Q15058),0.0728,0.116
KDM5C_P41229_825_NCLSEAEACVSR (UniProt P41229),-0.191,0.21
ITSN2_Q9NZM3_1414_ENSDRLEWIQAHVQCEGLAEQLIFNSLTNCLGPR (UniProt Q9NZM3),0.273,0.0125
ITSN2_Q9NZM3_1414+1429_ENSDRLEWIQAHVQCEGLAEQLIFNSLTNCLGPR (UniProt Q9NZM3),0.239,0.0804
KAT2A_Q92830_653_DYEGATLMECELNPR (UniProt Q92830),0.0318,-0.0486
KATNBL1_Q9H079_106_ENELACAGHLPEK (UniProt Q9H079),-0.0749,-0.279
KDM2A_Q9Y2K7_840_VLVQHCPAR (UniProt Q9Y2K7),0.0297,-0.0491
KDM3A_Q9Y4C1_467_AGVNSDSPNNCSGK (UniProt Q9Y4C1),0.0206,-0.0181
KBTBD11_O94819_384_ARPSDQVFCYNPATDSWSAVRPLR (UniProt O94819),0.0415,0.172
KAT8_Q9H7Z6_442_KPPITVDSVCLK (UniProt Q9H7Z6),-0.00352,0.376
ITPR1_Q14643_530_LLQAPFTDCGDGPMLR (UniProt Q14643),-0.0346,-0.31
ITPR1_Q14643_253_FLTCDEHR (UniProt Q14643),0.115,0.0628
IVD_P26440_350+355_ACDEGHCTAK (UniProt P26440),0.214,0.227
KEAP1_Q14145_319_IFEELTLHKPTQVMPCR (UniProt Q14145),0.0299,-0.0401
